Experimental data reported in the M2OR odorant receptor database.
Numbering of substitutions follows the chain as printed. Only a part is listed here, and it is no random draw. Calls are pooled over several reports, among them a noisy single-well screen. Some of the results follow.

Chains of the proteins cited; added tags and fusions are not shown. A line that says so, or that is headed by a name, gives the form on record, which may keep a tag or linker.
OR8B4, as listed by the source: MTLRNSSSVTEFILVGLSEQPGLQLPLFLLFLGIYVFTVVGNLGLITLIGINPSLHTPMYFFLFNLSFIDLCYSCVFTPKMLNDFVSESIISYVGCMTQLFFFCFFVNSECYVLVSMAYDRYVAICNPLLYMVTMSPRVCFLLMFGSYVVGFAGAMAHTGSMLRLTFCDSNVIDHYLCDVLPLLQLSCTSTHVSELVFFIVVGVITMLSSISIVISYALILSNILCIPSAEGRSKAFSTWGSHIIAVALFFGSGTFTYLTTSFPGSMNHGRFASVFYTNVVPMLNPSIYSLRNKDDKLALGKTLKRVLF
OR8B3, as listed by the source: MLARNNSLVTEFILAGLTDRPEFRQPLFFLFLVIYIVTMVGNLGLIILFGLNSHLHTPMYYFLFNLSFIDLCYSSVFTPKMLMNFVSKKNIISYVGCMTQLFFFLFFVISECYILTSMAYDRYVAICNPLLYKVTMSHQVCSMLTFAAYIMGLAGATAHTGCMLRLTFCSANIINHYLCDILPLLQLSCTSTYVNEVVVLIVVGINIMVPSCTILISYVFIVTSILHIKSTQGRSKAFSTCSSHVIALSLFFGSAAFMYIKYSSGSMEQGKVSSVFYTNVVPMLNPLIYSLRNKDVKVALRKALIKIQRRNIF

Legend:
Conditions in all cases: stereoisomer not certain
OR7G1 (Homo sapiens) = biological target: T1, OR7G1 (Homo sapiens) (UniProt Q8NGA0)
T1 sequence (whole entry): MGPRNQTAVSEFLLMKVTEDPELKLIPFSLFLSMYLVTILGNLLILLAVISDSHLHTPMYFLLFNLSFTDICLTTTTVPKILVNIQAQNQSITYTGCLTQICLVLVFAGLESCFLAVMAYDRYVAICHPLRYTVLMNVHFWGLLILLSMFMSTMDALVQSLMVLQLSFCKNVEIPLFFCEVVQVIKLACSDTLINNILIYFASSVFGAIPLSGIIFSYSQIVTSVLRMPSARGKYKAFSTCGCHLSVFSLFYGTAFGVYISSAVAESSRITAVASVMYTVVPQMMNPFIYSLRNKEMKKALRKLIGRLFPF
Summary of the method: (§1)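 Each receptor–molecule pair is labelled responsive or non-responsive (inactive) according to whether the original authors judged the measured signal statistically different from baseline. The data were taken from the main text and supplementary material of published papers and checked for typos and inconsistencies. Assay methods differed by source, with transient luciferase assays in mammalian cell lines being common.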

OR7G2 (Homo sapiens) = biological target: T2, OR7G2 (Homo sapiens) (UniProt Q8NG99)
T2 sequence (whole entry): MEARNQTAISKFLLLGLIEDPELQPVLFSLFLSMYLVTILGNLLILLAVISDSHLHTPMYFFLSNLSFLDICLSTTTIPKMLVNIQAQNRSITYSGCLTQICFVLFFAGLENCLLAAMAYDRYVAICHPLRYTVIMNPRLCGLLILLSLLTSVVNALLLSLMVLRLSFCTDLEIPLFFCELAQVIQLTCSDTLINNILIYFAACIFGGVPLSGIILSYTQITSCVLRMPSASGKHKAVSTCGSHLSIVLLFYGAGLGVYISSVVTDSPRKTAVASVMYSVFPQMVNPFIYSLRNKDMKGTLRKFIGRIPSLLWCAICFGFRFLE
Summary of the method: as §1

OR7G2 = system: T3, OR7G2
T3 sequence (whole entry): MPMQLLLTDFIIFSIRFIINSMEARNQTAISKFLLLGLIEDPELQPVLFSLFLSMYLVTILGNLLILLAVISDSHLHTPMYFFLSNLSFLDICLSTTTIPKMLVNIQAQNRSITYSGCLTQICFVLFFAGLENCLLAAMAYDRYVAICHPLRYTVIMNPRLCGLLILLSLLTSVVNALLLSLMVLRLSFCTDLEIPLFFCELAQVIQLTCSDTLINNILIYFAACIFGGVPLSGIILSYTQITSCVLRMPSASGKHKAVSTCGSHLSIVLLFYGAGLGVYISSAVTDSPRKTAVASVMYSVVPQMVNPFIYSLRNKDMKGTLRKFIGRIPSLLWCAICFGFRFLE
Summary of the method: as §1

OR7G3 (Homo sapiens) = biological target: T4, OR7G3 (Homo sapiens) (UniProt Q8NG95)
T4 sequence (whole entry): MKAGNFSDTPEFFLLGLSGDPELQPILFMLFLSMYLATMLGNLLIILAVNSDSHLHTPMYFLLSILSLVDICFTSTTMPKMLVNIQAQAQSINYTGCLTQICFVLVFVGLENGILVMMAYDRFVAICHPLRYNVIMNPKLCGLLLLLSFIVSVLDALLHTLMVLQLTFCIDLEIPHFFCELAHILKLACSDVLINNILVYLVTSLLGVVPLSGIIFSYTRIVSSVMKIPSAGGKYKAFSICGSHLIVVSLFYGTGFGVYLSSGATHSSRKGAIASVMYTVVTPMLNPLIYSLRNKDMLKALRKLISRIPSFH
Summary of the method: as §1

OR8A1 = system: T5, OR8A1
T5 sequence (whole entry): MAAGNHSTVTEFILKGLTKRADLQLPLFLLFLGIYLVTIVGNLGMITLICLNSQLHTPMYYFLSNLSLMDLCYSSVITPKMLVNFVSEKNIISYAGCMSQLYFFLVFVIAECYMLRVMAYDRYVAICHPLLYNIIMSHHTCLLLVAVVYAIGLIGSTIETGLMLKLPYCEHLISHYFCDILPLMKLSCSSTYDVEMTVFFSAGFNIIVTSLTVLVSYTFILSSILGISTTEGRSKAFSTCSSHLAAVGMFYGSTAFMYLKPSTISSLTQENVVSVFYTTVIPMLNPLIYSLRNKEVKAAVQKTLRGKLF
Summary of the method: as §1

OR8B4 [1] = system: T6, OR8B4
T6 sequence (whole entry): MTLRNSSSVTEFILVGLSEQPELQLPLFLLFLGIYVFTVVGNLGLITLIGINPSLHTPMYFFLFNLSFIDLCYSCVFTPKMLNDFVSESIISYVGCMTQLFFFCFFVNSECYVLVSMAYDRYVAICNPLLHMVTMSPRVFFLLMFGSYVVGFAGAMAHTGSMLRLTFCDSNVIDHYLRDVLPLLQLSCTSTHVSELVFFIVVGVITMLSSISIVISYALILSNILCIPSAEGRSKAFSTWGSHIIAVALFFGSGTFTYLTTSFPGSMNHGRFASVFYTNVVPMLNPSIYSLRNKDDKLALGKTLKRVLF
Summary of the method: as §1

OR8B4 [2] = system: T7, OR8B4; remark: listed apart in the source
T7 sequence (whole entry): T6 sequence (whole entry) with E22G, H131Y, F140C, R178C
Summary of the method: as §1

OR8B8 (Homo sapiens) = biological target: T8, OR8B8 (Homo sapiens) (UniProt Q15620)
T8 sequence (whole entry): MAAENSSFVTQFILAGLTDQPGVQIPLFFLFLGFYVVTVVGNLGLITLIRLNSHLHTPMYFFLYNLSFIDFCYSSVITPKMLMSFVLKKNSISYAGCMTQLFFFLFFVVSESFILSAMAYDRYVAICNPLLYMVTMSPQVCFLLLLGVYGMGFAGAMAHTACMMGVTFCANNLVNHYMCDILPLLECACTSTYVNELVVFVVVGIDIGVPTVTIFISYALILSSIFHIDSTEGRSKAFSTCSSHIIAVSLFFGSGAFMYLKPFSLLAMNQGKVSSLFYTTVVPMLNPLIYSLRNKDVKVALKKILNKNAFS
Summary of the method: as §1

OR8B8 = system: T9, OR8B8
T9 sequence (whole entry): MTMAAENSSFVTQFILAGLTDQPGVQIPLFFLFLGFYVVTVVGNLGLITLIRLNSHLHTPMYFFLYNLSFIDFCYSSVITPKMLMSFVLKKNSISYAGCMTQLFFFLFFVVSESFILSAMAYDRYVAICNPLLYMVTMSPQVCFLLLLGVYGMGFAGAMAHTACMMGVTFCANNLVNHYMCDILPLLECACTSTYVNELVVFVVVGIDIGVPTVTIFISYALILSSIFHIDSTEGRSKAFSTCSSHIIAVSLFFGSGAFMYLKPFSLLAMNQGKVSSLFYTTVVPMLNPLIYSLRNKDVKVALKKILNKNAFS
Summary of the method: as §1

OR7D4 = system: T10, OR7D4
T10 sequence (whole entry): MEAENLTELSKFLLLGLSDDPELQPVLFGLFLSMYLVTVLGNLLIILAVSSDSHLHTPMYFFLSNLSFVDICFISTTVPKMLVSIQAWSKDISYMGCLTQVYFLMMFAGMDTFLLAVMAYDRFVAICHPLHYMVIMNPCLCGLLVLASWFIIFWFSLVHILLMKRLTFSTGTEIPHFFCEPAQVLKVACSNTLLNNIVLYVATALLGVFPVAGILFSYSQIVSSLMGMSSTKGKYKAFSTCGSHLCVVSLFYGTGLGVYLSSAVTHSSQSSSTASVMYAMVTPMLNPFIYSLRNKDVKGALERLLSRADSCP
Summary of the method: as §1

OR8B12 (Homo sapiens) = biological target: T11, OR8B12 (Homo sapiens) (UniProt Q8NGG6)
T11 sequence (whole entry): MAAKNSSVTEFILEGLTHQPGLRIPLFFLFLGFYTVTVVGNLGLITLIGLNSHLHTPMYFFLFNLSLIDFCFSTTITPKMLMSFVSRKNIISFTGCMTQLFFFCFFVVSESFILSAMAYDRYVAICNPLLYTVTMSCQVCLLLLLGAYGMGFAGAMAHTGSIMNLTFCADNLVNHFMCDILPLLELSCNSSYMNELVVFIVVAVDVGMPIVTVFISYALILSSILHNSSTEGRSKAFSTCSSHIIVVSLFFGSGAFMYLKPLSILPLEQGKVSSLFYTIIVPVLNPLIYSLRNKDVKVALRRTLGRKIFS
Summary of the method: as §1

OR8B2 (Homo sapiens) = biological target: T12, OR8B2 (Homo sapiens) (UniProt Q96RD0)
T12 sequence (whole entry): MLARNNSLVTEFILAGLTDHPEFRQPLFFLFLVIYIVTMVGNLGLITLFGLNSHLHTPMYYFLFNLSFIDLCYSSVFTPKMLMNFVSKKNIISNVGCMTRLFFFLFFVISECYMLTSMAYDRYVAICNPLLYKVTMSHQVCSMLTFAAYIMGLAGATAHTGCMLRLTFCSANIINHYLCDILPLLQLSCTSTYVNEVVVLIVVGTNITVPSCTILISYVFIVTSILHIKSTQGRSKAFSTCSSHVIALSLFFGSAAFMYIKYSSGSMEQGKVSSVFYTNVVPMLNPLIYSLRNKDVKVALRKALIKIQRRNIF
Summary of the method: as §1

OR8B3 = system: T13, OR8B3
T13 sequence (whole entry): T12 sequence (whole entry) with H20R, T47I, N94Y, R100Q, M114I, T205I, T208M
Summary of the method: as §1

Measured: odorant receptor agonist call

CC1=NC(C)SC1C (centres undefined)
not listed: OR7D4 | OR8B12 (Homo sapiens) | OR8B2 (Homo sapiens) | OR8B3
inactive: all other assays above

CCCCCCCC=O
inactive: all assays above

CC1COCc2cc3c(cc21)C(C)(C)C(C)C3(C)C (centres undefined)
active: OR7G2 | OR7G3 (Homo sapiens) | OR8A1 | OR8B12 (Homo sapiens) | OR8B4 [1] | OR8B8 (Homo sapiens)
inactive: all other assays above

CC(=O)c1ccccc1
not listed: OR7D4 | OR8B12 (Homo sapiens) | OR8B3
inactive: all other assays above

O=C1CCCCCCCCCCCCCCO1
inactive: all assays above

CC(C)(C)c1ccc(CCC=O)cc1
inactive: all assays above

CCCCCC(C)=O
active: OR7G3 (Homo sapiens)
not listed: OR7D4 | OR8B12 (Homo sapiens) | OR8B2 (Homo sapiens) | OR8B3
inactive: all other assays above

O=C1CCCCC1
not listed: OR7D4 | OR8B12 (Homo sapiens) | OR8B2 (Homo sapiens) | OR8B3
inactive: all other assays above

CC12CCC(C1)C(C)(C)C2=O (centres undefined)
inactive: all assays above

CC(C)CCC(=O)O
inactive: all assays above

COC(=O)c1ccccc1
not listed: OR7D4 | OR8B12 (Homo sapiens) | OR8B2 (Homo sapiens) | OR8B3
inactive: all other assays above

C=CCSCC=C
inactive: all assays above

CCCCCCCCCCC=O
active: OR8B2 (Homo sapiens)
inactive: all other assays above

C=C(C)C1CCC2=CC(=O)CC(C)C2(C)C1 (centres undefined)
inactive: OR8B2 (Homo sapiens) | OR8B3
active: OR8B12 (Homo sapiens)

CC(C)CC(=O)O
active: OR8B12 (Homo sapiens)
inactive: all other assays above

CC1=CCC(C(C)(C)O)CC1 (centres undefined)
active: OR8B2 (Homo sapiens)
inactive: all other assays above

CCCCCC(=O)O
inactive: all assays above

CC(=O)C(C)=O
inactive: all assays above

C=C(C)C1CC=C(C)C(=O)C1 (centres undefined)
inactive: OR7D4 | OR8B2 (Homo sapiens)
active: OR8B3

CC(=O)OC(C)(C)C1CC=C(C)CC1 (centres undefined)
inactive: all assays above

CC(=O)OCC=C(C)CCC=C(C)C
active: OR8B2 (Homo sapiens) | OR8B3
inactive: all other assays above

CCCCCOC(C)=O
not listed: OR7D4
inactive: all other assays above

O=CCc1ccccc1
active: OR8B12 (Homo sapiens) | OR8B2 (Homo sapiens) | OR8B3
inactive: all other assays above

CC(C)(O)CCCC1=CCC(C=O)CC1 (centres undefined)
inactive: OR8B12 (Homo sapiens) | OR8B2 (Homo sapiens) | OR8B3

CCCCCCCC=CC=O
inactive: all assays above

C=CC(C)(O)CCC=C(C)C (centres undefined)
inactive: all assays above

COc1cc(C)ccc1O
inactive: all assays above

c1ccc(Oc2ccccc2)cc1
inactive: all assays above
